The text below walks through data of publication PMC6091180.

Protein sequences, listed by entry. Tags and fused reporters are not part of them.
UniProt P01106: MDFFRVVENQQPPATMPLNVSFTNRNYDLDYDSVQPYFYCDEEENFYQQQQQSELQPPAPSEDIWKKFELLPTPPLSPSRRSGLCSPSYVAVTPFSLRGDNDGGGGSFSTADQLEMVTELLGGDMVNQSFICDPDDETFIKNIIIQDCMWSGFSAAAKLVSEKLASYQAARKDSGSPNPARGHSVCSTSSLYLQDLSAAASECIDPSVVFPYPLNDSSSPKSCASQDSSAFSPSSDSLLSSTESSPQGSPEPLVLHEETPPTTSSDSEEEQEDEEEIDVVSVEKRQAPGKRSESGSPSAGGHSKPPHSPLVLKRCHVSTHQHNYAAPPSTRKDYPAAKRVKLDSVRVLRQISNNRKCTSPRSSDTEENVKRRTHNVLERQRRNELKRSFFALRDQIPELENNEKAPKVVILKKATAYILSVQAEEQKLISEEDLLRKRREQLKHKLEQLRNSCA
UniProt P07355: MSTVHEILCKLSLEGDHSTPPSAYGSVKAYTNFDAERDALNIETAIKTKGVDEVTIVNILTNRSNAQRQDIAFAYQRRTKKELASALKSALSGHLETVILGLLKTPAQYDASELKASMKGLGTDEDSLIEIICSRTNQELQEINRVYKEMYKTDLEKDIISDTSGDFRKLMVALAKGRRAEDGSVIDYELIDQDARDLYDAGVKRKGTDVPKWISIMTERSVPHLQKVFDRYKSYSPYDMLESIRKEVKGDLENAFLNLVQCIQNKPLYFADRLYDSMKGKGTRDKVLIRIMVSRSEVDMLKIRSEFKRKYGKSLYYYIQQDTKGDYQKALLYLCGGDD

No constants are given. Whether binding was seen depends on the method and setting. In cells and extracts the contact can be indirect. Some binding calls cover weakened binding; strength is not graded here.

The target in this assay is MYC (human (endogenous in ESCC cell lines)) (UniProt P01106). The experiment in a line: co-IP; ESCC cell lysate in non-denaturing lysis buffer with protease inhibitors; incubated with anti-MYC or anti-ANXA2 antibody (rabbit or mouse IgG as control) at 4 °C overnight; Protein G agarose beads 4 h at 4 °C; washed with PBS; Western blot. In general terms: In western blotting, separated proteins are transferred to a membrane and probed.

In the case of “ANXA2 (Annexin A2) (from UniProt P07355 1-339)”, the binding entry was “binds”.
